Out of some 400,000 compounds screened, about 13,000 (3.2%) were called active. Inconclusive results, whose numbers are uncertain, are shown with a selection of clear calls. The call rests on the fitted dose curve; in most records, active means well fitted cell-killing curve with a large enough effect; inconclusive means small, poorly fitted or top-dose-only effect, or effect the other way; inactive means flat fitted curve, though single readings scatter. A potency beside an inconclusive call is a rough fit, not a confirmed value.
test: qHTS assay for MDR1-selective chemotherapeutics: Primary screen using the drug-selected MDR subline cells KB-V1; conditions: KB-V1 MDR cells viability, CellTiter-Glo, 72 h; activity change, negative = cytotoxicity: at 46.1 µM (top of the series); further: nearly all actives have a fitted effect of over 60% in size
Summary of the method: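 Cytotoxicity toward P-gp-expressing KB-V1 cells was determined as loss of CellTiter-Glo luminescence after 72 h at 37 degrees C. Compounds were tested in quantitative HTS format across a concentration range, with curves fitted to normalized data.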
On the % scale 0 is the no-effect control and ±100 the full control effect; potency means the concentration at half of the fitted maximal effect.

Row | Structure (SMILES) | Potency | activity change, negative = cytotoxicity
1 | O=C1NC(=O)C2(CCCCCCCCCCC2)N1 | inactive | 
2 | O=C(/C=C/c1cccc(Br)c1)NC1CCN(Cc2ccccc2)CC1 | inactive | 
3 | COc1ccc(N(C2CSC2)S(=O)(=O)c2ccccc2)cc1 | inconclusive: 8.2 µM [cytotoxic, partial curve] | 
4 | O=C(NCc1nnc(SCC(=O)N2CCCc3ccccc32)n1-c1ccccc1)c1cccc2ccccc12 | active: 16.4 µM | 
5 | CCOc1ccc(OCCCC(=O)N2CCN(S(=O)(=O)c3ccccc3C#N)CC2)cc1 | inactive | 
6 | CSc1ccccc1C(=O)NCCc1ccc(S(=O)(=O)N2CCCCC2)cc1 | inconclusive: 5.17 µM [cytotoxic, full curve] | 
7 | N#CCCN(C(=O)COC(=O)c1ccc(S(=O)(=O)N2CCCC2)cc1)c1cccc(Cl)c1 | inconclusive: 29.1 µM [rising, single point] | 
8 | O=C(CSc1nc2cc3c(cc2c(=O)n1CCC1=CCCCC1)OCO3)NCc1ccco1 | inconclusive: 1.3 µM [cytotoxic, full curve] | 
9 | Cc1cccc(C(=O)Nc2cc(S(=O)(=O)N3CCOCC3)ccc2N2CCCCC2)c1 | inconclusive: 25.9 µM [cytotoxic, partial curve, poor fit] | 
10 | CCOc1cc(C(=O)N/N=C/C(Br)=C/c2ccccc2)cc(OCC)c1OCC | inconclusive: 3.66 µM [cytotoxic, partial curve, poor fit] | 
11 | Cc1ccc(-n2ncc(C(=O)N3CCN(c4cccc(C)c4C)CC3)c2C2CCNCC2)c(C)c1 | inactive | 
12 | O=C(Cn1ccc([N+](=O)[O-])n1)N1CCCc2ccccc21 | inconclusive: 32.6 µM [cytotoxic, partial curve, poor fit] | 
13 | Nc1cc(C(F)(F)F)ccc1-n1cccc1 | inactive | 
14 | CC(C)c1nc(SCC(=O)Nc2nc3c(s2)CCCC3)c2ccccc2n1 | active: 14.6 µM | 
15 | C=CCNC(=O)c1ccc(CN2CCC(Cc3ccccc3)CC2)cc1 | inactive | 
16 | COc1ccc(-c2csc(NC(=O)CSCC(=O)Nc3cc(C)on3)n2)c(OC)c1 | inconclusive: 11.6 µM [cytotoxic, partial curve] | 
17 | CCOC(=O)c1cccc(NC(=O)/C=C/c2ccc([N+](=O)[O-])cc2)c1 | active: 4.11 µM | 
18 | Cc1cc(Br)c(NC(=O)COC(=O)CC2CC3CCC2C3)c(Br)c1 (stereo unspecified) | inconclusive: 1.84 µM [rising, partial curve, poor fit] | 
19 | CCN(CC)c1ccc(NC(=O)CN2CCN(c3nc(C)cc(C)n3)CC2)cc1 | inconclusive: 29.1 µM [cytotoxic, single point] | 
20 | CCC1Oc2ccc(C)cc2N(CC(=O)N(Cc2cccnc2)Cc2ccc(C)o2)C1=O (stereo unspecified) | inconclusive: 8.2 µM [cytotoxic, partial curve, poor fit] | 
21 | COc1cc(CC(=O)OCC(=O)Nc2ccc3c(c2)OCCO3)cc(OC)c1OC |  | inconclusive: 35.8%
22 | CCOc1ccccc1CNC(=O)C1CCN(Cc2cc3ccccc3n2Cc2ccccc2)CC1 | inactive | 
23 | Cc1cc(N2CCN(c3ncccn3)CC2)nc2c(C)cccc12 | inactive | 

Row | Structure (SMILES) | Potency | activity change, negative = cytotoxicity
24 | Cc1ccc(-c2cn3nc(N4CCC(C(=O)Nc5ccccc5C)CC4)sc3n2)cc1 | inactive | 
25 | Cc1nn(Cc2cccc(C(=O)NC(C)c3ccc(C(C)(C)C)cc3)c2)c(C)c1[N+](=O)[O-] (stereo unspecified) | active: 6.51 µM | 
26 | CCN(CC1CCCO1)C(=O)c1cc(COc2ccccc2SC)on1 (stereo unspecified) | inconclusive: 20.6 µM [cytotoxic, partial curve, poor fit] | 
27 | CCOC(=O)CN1N=C(/C=C/c2ccc(OCC)cc2)CCC1=O | inconclusive: 2.91 µM [cytotoxic, partial curve, poor fit] | 
28 | CCOC(=O)c1nc(C)nc(Sc2n[nH]c(-c3cc(C(F)(F)F)cc(C(F)(F)F)c3)n2)c1C | inactive | 
29 | CCOC(=O)c1cc(NC(=O)c2ccco2)ccc1N1CCOCC1 | inactive | 
30 | Cn1c(SCC(=O)NC2CCCCC2)nnc1C(F)(F)F | inactive | 
31 | O=C(Nc1ccc2c(c1)OCO2)c1cnc(Cl)c(Cl)c1 | inactive | 
32 | CCCCc1nc(NCC2CCCO2)c(C#N)c2c1COC(C)(C)C2 (stereo unspecified) | inconclusive: 18.4 µM [cytotoxic, partial curve] | 
33 | CCC(C(=O)Nc1cc(OC)ccc1OC)n1nc(-c2ccccc2)c2c(c1=O)CCCC2 (stereo unspecified) | inconclusive: 29.1 µM [cytotoxic, single point] | 
34 | C/C(=N\NC(=O)c1ccoc1C)c1ccccc1O | inconclusive: 18.4 µM [cytotoxic, single point] | 
35 | Cc1nn(CC(=O)NCCc2ccccc2)c(=O)c2cccn12 | inconclusive: 29.1 µM [rising, single point] | 
36 | C=CCNC(=O)C1CCN(c2cc(C)nc(-c3ccccc3)n2)CC1 | inconclusive: 4.11 µM [cytotoxic, full curve] | 
37 | CC(OC(=O)c1cccc(-n2cnnn2)c1)C(=O)c1ccccc1 (stereo unspecified) | inactive | 
38 | CC(C)NC(=O)CSc1nnc(COc2ccccc2Cl)o1 | inconclusive: 23.1 µM [rising, single point] | 
39 | Cn1c(SCc2n[nH]c(=S)o2)nnc1-c1ccccc1 | inactive | 
40 | COc1ccc(N(CC(=O)Nc2cc(C)ccc2OC)S(=O)(=O)c2c(C)noc2C)cc1 | active: 9.2 µM | 
41 | CC1(C)Cc2cccc(OCC(O)CNCc3ccccn3)c2O1 (stereo unspecified) | inconclusive: 29.1 µM [cytotoxic, single point] | 
42 | O=C(COCc1cc(-c2ccc3c(c2)OCO3)on1)N1CCN(c2cccc(C(F)(F)F)c2)CC1 | inactive | 
43 | Cc1ccc(C(=O)Nc2ccccc2[N+](=O)[O-])cc1S(=O)(=O)N1CCOCC1 | inconclusive: 29.1 µM [cytotoxic, single point] | 
44 | O=C(NCc1cccc2ccccc12)Nc1ccccc1 | inconclusive: 9.2 µM [cytotoxic, partial curve, poor fit] | 
46 | CCOC(=O)C1(CCCc2ccccc2)CCN(Cc2nccn2CC)CC1 | inconclusive: 7.31 µM [cytotoxic, partial curve] | 

Given field by field: part of the list above
CCOC(=O)c1cc(NC(=O)c2ccco2)ccc1N1CCOCC1
  Potency: inactive
COc1ccc(N(CC(=O)Nc2cc(C)ccc2OC)S(=O)(=O)c2c(C)noc2C)cc1
  Potency: active: 9.2 µM
